The values below come from paper doi:10.1101/2024.10.03.616509.

For this test, the target named is T1, GST-SNX17 (UniProt Q15036).
T1 sequence: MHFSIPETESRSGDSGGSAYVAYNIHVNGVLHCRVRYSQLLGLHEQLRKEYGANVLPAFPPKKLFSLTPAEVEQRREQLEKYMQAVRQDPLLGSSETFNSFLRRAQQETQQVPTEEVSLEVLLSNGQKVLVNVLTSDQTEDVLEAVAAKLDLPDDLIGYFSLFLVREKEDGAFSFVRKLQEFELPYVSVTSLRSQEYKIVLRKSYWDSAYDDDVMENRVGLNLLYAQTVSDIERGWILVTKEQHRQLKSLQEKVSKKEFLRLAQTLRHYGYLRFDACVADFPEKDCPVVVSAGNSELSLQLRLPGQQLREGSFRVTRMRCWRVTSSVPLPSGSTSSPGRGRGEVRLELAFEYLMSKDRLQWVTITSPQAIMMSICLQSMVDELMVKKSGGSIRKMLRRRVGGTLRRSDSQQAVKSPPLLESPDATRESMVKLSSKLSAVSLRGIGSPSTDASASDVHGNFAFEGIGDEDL
As to the kind of experiment: pull-down.

Results are given in words; binding and its absence hold for the method and conditions named. Binding seen in cells or lysates may run through a third protein. Some entries that bind do so weakly or less than the wild type. Where a sequence is shown, tags or fusion partners need not be part of it.

B1: MBP-TECPR2 (935-1411 aa) (domain or fragment, UniProt O15040 935-1411)
chain: YPLSQITARNNVVWALTEQRALLYREGVSSFCPEGEQWKCDIVSERQALEPVCITLGDQQTLWALDIHGNLWFRTGIISKKPQGDDDHWWQVSITDYVVFDQCSLFQTIIHATHSVATAAQAPVEKVADKLRMAFWSQQLQCQPSLLGVNNSGVWISSGKNEFHVAKGSLIGTYWNHVVPRGTASATKWAFVLASAAPTKEGSFLWLCQSSKDLCSVSAQSAQSRPSTVQLPPEAEMRAYAACQDALWALDSLGQVFIRTLSKSCPTGMHWTRLDLSQLGAVKLTSLACGNQHIWACDSRGGVYFRVGTQPLNPSLMLPAWIMIEPPVQPAGVSLVSVHSSPNDQMLWVLDSRWNVHVRTGITEEMPVGTAWEHVPGLQACQLALSTRTVWARCPNGDLARRYGVTDKNPAGDYWKKIPGSVSCFTVTASDELWAVGPPGYLLQRLTKTFSHSHGTQKSSQAAMPHPEDLEDEWEVI
Regarding B1, the binding entry is reported as “binds”.

B2: MBP-TECPR2_TECPR (R1336W) (domain or fragment, UniProt O15040 935-1411)
chain: YPLSQITARNNVVWALTEQRALLYREGVSSFCPEGEQWKCDIVSERQALEPVCITLGDQQTLWALDIHGNLWFRTGIISKKPQGDDDHWWQVSITDYVVFDQCSLFQTIIHATHSVATAAQAPVEKVADKLRMAFWSQQLQCQPSLLGVNNSGVWISSGKNEFHVAKGSLIGTYWNHVVPRGTASATKWAFVLASAAPTKEGSFLWLCQSSKDLCSVSAQSAQSRPSTVQLPPEAEMRAYAACQDALWALDSLGQVFIRTLSKSCPTGMHWTRLDLSQLGAVKLTSLACGNQHIWACDSRGGVYFRVGTQPLNPSLMLPAWIMIEPPVQPAGVSLVSVHSSPNDQMLWVLDSRWNVHVRTGITEEMPVGTAWEHVPGLQACQLALSTRTVWARCPNGDLARWYGVTDKNPAGDYWKKIPGSVSCFTVTASDELWAVGPPGYLLQRLTKTFSHSHGTQKSSQAAMPHPEDLEDEWEVI
As for B2, the binding entry is “binds”.

B3: FLAG-TECPR2 (WT) (protein, UniProt O15040 1-1411)
chain: MASISEPVTFREFCPLYYLLNAIPTKIQKGFRSIVVYLTALDTNGDYIAVGSSIGMLYLYCRHLNQMRKYNFEGKTESITVVKLLSCFDDLVAAGTASGRVAVFQLVSSLPGRNKQLRRFDVTGIHKNSITALAWSPNGMKLFSGDDKGKIVYSSLDLDQGLCNSQLVLEEPSSIVQLDYSQKVLLVSTLQRSLLFYTEEKSVRQIGTQPRKSTGKFGACFIPGLCKQSDLTLYASRPGLRLWKADVHGTVQATFILKDAFAGGVKPFELHPRLESPNSGSCSLPERHLGLVSCFFQEGWVLSWNEYSIYLLDTVNQATVAGLEGSGDIVSVSCTENEIFFLKGDRNIIRISSRPEGLTSTVRDGLEMSGCSERVHVQQAEKLPGATVSETRLRGSSMASSVASEPRSRSSSLNSTDSGSGLLPPGLQATPELGKGSQPLSQRFNAISSEDFDQELVVKPIKVKRKKKKKKTEGGSRSTCHSSLESTPCSEFPGDSPQSLNTDLLSMTSSVLGSSVDQLSAESPDQESSFNGEVNGVPQENTDPETFNVLEVSGSMPDSLAEEDDIRTEMPHCHHAHGRELLNGAREDVGGSDVTGLGDEPCPADDGPNSTQLPFQEQDSSPGAHDGEDIQPIGPQSTFCEVPLLNSLTVPSSLSWAPSAEQWLPGTRADEGSPVEPSQEQDILTSMEASGHLSTNLWHAVTDDDTGQKEIPISERVLGSVGGQLTPVSALAASTHKPWLEQPPRDQTLTSSDEEDIYAHGLPSSSSETSVTELGPSCSQQDLSRLGAEDAGLLKPDQFAESWMGYSGPGYGILSLVVSEKYIWCLDYKGGLFCSALPGAGLRWQKFEDAVQQVAVSPSGALLWKIEQKSNRAFACGKVTIKGKRHWYEALPQAVFVALSDDTAWIIRTSGDLYLQTGLSVDRPCARAVKVDCPYPLSQITARNNVVWALTEQRALLYREGVSSFCPEGEQWKCDIVSERQALEPVCITLGDQQTLWALDIHGNLWFRTGIISKKPQGDDDHWWQVSITDYVVFDQCSLFQTIIHATHSVATAAQAPVEKVADKLRMAFWSQQLQCQPSLLGVNNSGVWISSGKNEFHVAKGSLIGTYWNHVVPRGTASATKWAFVLASAAPTKEGSFLWLCQSSKDLCSVSAQSAQSRPSTVQLPPEAEMRAYAACQDALWALDSLGQVFIRTLSKSCPTGMHWTRLDLSQLGAVKLTSLACGNQHIWACDSRGGVYFRVGTQPLNPSLMLPAWIMIEPPVQPAGVSLVSVHSSPNDQMLWVLDSRWNVHVRTGITEEMPVGTAWEHVPGLQACQLALSTRTVWARCPNGDLARRYGVTDKNPAGDYWKKIPGSVSCFTVTASDELWAVGPPGYLLQRLTKTFSHSHGTQKSSQAAMPHPEDLEDEWEVI
For B3, the binding result is reported as “binds”.

B4: endogenous TECPR2 (protein, UniProt O15040 1-1411)
chain: MASISEPVTFREFCPLYYLLNAIPTKIQKGFRSIVVYLTALDTNGDYIAVGSSIGMLYLYCRHLNQMRKYNFEGKTESITVVKLLSCFDDLVAAGTASGRVAVFQLVSSLPGRNKQLRRFDVTGIHKNSITALAWSPNGMKLFSGDDKGKIVYSSLDLDQGLCNSQLVLEEPSSIVQLDYSQKVLLVSTLQRSLLFYTEEKSVRQIGTQPRKSTGKFGACFIPGLCKQSDLTLYASRPGLRLWKADVHGTVQATFILKDAFAGGVKPFELHPRLESPNSGSCSLPERHLGLVSCFFQEGWVLSWNEYSIYLLDTVNQATVAGLEGSGDIVSVSCTENEIFFLKGDRNIIRISSRPEGLTSTVRDGLEMSGCSERVHVQQAEKLPGATVSETRLRGSSMASSVASEPRSRSSSLNSTDSGSGLLPPGLQATPELGKGSQPLSQRFNAISSEDFDQELVVKPIKVKRKKKKKKTEGGSRSTCHSSLESTPCSEFPGDSPQSLNTDLLSMTSSVLGSSVDQLSAESPDQESSFNGEVNGVPQENTDPETFNVLEVSGSMPDSLAEEDDIRTEMPHCHHAHGRELLNGAREDVGGSDVTGLGDEPCPADDGPNSTQLPFQEQDSSPGAHDGEDIQPIGPQSTFCEVPLLNSLTVPSSLSWAPSAEQWLPGTRADEGSPVEPSQEQDILTSMEASGHLSTNLWHAVTDDDTGQKEIPISERVLGSVGGQLTPVSALAASTHKPWLEQPPRDQTLTSSDEEDIYAHGLPSSSSETSVTELGPSCSQQDLSRLGAEDAGLLKPDQFAESWMGYSGPGYGILSLVVSEKYIWCLDYKGGLFCSALPGAGLRWQKFEDAVQQVAVSPSGALLWKIEQKSNRAFACGKVTIKGKRHWYEALPQAVFVALSDDTAWIIRTSGDLYLQTGLSVDRPCARAVKVDCPYPLSQITARNNVVWALTEQRALLYREGVSSFCPEGEQWKCDIVSERQALEPVCITLGDQQTLWALDIHGNLWFRTGIISKKPQGDDDHWWQVSITDYVVFDQCSLFQTIIHATHSVATAAQAPVEKVADKLRMAFWSQQLQCQPSLLGVNNSGVWISSGKNEFHVAKGSLIGTYWNHVVPRGTASATKWAFVLASAAPTKEGSFLWLCQSSKDLCSVSAQSAQSRPSTVQLPPEAEMRAYAACQDALWALDSLGQVFIRTLSKSCPTGMHWTRLDLSQLGAVKLTSLACGNQHIWACDSRGGVYFRVGTQPLNPSLMLPAWIMIEPPVQPAGVSLVSVHSSPNDQMLWVLDSRWNVHVRTGITEEMPVGTAWEHVPGLQACQLALSTRTVWARCPNGDLARRYGVTDKNPAGDYWKKIPGSVSCFTVTASDELWAVGPPGYLLQRLTKTFSHSHGTQKSSQAAMPHPEDLEDEWEVI
In the case of B4, the binding result is given as “binds”.
